Earlier results, collected in patent publication US20230201290A1, “TGF-BETA INHIBITION, AGENTS AND COMPOSITION THEREFOR” (GMP BIOTECHNOLOGY LIMITED, priority 2020, published 2023).
For part of these data: The name of at least one read-out is uncertain. For part of these data: For at least one compound, name, drawing or mass did not settle the structure. Some of these results come from one statement about several compounds together. Strand notation (5' to 3'): a small letter for the sugar, then the base; units joined by * are phosphorothioate-linked, units joined directly phosphodiester-linked; [ ] holds rarer units or linkages, { } end groups; capitals alone tell only the bases. d = 2'-deoxy (DNA)

Assays:
[1] = cited from earlier work
[2] = test system: COVID-19; conditions: cited from earlier work
[3] = test system: COVID-19; conditions: upper and lower respiratory tracts; cited from earlier work
[4] = test system: MHV; conditions: 0.1 and 0.5 μM; cited from earlier work

With C[C@@H]1CC[C@H]2[C@@H](C)C(=O)O[C@@H]3O[C@@]4(C)CC[C@@H]1[C@]32OO4 [Artemisinin] as the compound, how does the “time to Cmax” value ([1]; 500 mg after food) read?
The value was 1.78 ± 1.2 h.

What about the enzyme elimination half-life ([1]; semiphysiological autoinduction model) of the same compound?
Its enzyme elimination half-life is 37.9 h.

Which results are given for CCC(CC)COC(=O)[C@H](C)N[P@](=O)(OC[C@H]1O[C@@](C#N)(c2ccc3c(N)ncnn23)[C@H](O)[C@@H]1O)Oc1ccccc1 [Remdesivir]?
time to recovery ([2]; 200 mg day 1, 100 mg daily up to ten days, placebo 15 days): 11 days; mortality ([2]; treatment group, placebo 11.6%): 8%; effect on viral load compared to placebo [3]: no effect on viral load

With “AAAGTTTAGATTAGATTAGA (antisense dA*dA*dA*dG*dT*dT*dT*dA*dG*dA*dT*dT*dA*dG*dA*dT*dT*dA*dG*dA) [AL-oligo]” as the compound, how does the “inhibition of viral multiplication” value [4] read?
Its value is “more than 95%”.
